Measured data: PubChem BioAssay AID504791 (Drosophila RNAi Screening Center, 2011)
Assay: 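Factors in Argonaute-based small RNA production and activity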 (primary screen). Cell system: Drosophila S2-derived reporter cells. Reagent: long dsRNA against Drosophila genes, about 150-250 ng dsRNA per well (siRNA assay); about 80-120 ng (miRNA assay). Duration: about 5 days (siRNA assay); about 4 days (miRNA assay). Treatment: copper sulfate induction of reporters: 25 µM (siRNA assay); 200 mM stated (miRNA assay), 1-2 days before reading. Read-out: 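Per-well ratio of Renilla over firefly light, expressed relative to that plate's average ratio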. Active means: 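First-pass picks had plate-scaled ratios over 1.5 for the siRNA assay, over 1.6 for the miRNA assay, or under 0.6; two distinct dsRNAs had to score alike on retest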.
The screen tested about 23,000 reagents; below is an unselected part of those that have a named target and a result. Over the whole deposit, 199 (0.86%) are marked active. 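Plate-scaled ratios behind the calls are not deposited; printed light signals are raw; many rows marked increased or decreased are still called inactive.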 A number with no mark means an inactive call. A plus sign joins genes that one reagent is predicted to hit. The record does not give: the direction of the score.

no.	gene knocked down	dsRNA	stable siRNA reporter change	miRNA reporter change	stable assay Renilla, run 1 (luminescence)	stable assay firefly, run 1 (luminescence)
1	CG33159	DRSC08199			4788	4.49e5
2	CG9166	DRSC07842			8130	4.45e5
3	TwdlW	DRSC15540			6870	3.23e5
4	OtopLc	DRSC18082			4695	2.72e5
5	OtopLc	DRSC18083			2816	1.76e5
6	OtopLc	DRSC18132			4811	2.61e5
7	CG31787	DRSC01632			5823	3.17e5
8	bigmax	DRSC15481	reporter ratio lowered past the hit cutoff		5074	4.95e5
9	S-Lap2	DRSC10628			7032	5.07e5
10	slbo	DRSC04716			3939	4.67e5
11	Gpo1	DRSC07128			8418	3.72e5
12	ckd	DRSC08418			5420	4.73e5
13	yellow-f	DRSC15348			8285	6.21e5
14	SERCA	DRSC04600			22015	9.82e5
15	CG31086 + CG31323	DRSC14902			6744	3.37e5
16	Vha16-4 + CG15614	DRSC07321			6252	3.02e5
17	Iris	DRSC00663			42155	4.13e5
18	CG12581	DRSC12206			9007	2.71e5
19	CG12581	DRSC12207			7803	4.20e5
20	CG30192	DRSC03977			5191	3.48e5
21	Scamp	DRSC20286			5219	4.94e5
22	CG30109	DRSC05675			6279	3.72e5
23	CG34181	DRSC01071			5691	5.76e5
24	gcl	DRSC07623			8662	5.40e5
25	CG11836	DRSC14396			9629	3.95e5
26	CG33330 (retired record)	DRSC13053		reporter ratio raised past the hit cutoff	3324	2.59e5
27	CG33330 (retired record)	DRSC15495			7998	5.11e5
28	asrij	DRSC04175			7170	3.71e5
29	CG14673 (retired record)	DRSC12259			8031	5.35e5
30	Spt3	DRSC15465			7415	4.25e5
31	Gr58b	DRSC04140			6364	3.21e5
32	Snx6	DRSC03081			28441	4.04e5
33	CG7739	DRSC10910			6451	4.76e5
34	Spn42De	DRSC05011			7751	4.05e5
35	ix	DRSC06325			5087	2.62e5
36	loaf	DRSC09130			4032	3.39e5
37	CG5646	DRSC15853			8266	4.98e5
38	CG3500	DRSC04379			6154	3.22e5
39	CG31792	DRSC02604			7758	5.30e5
40	MAN1	DRSC04342			2.34e5	1.67e6
41	CG42366	DRSC02760			5888	3.59e5
42	CG42366	DRSC23297			3879	3.19e5
43	CG17681	DRSC02632			6903	3.89e5
44	pHCl-2	DRSC14306			7486	3.97e5
45	CG34309	DRSC14838			6654	4.25e5
46	Cpr51A	DRSC05969			6851	3.46e5
47	COX6AL2 + Ir75d	DRSC10081			6207	3.96e5
48	Dbp73D	DRSC11142			11863	6.26e5
49	CG17230	DRSC15203			8714	4.71e5
50	boil	DRSC17872			6123	3.19e5
51	Klp31E	DRSC03354			9136	7.45e5
52	dysf	DRSC14529			8059	3.39e5
53	dysf	DRSC14895			6519	2.84e5
54	dysf	DRSC14896			6910	3.26e5
55	dysf	DRSC14897			5415	1.78e5
56	CG13907	DRSC08377			11290	3.86e5
57	CG5391	DRSC15790			8729	4.96e5
58	CG2493	DRSC02707			11445	2.63e6
59	Ktl	DRSC14270			9134	3.18e5

The list goes on; the last 15 above are carried over.
no.	gene knocked down	dsRNA	stable siRNA reporter change	miRNA reporter change	stable assay Renilla, run 1 (luminescence)	stable assay firefly, run 1 (luminescence)
45	CG34309	DRSC14838			6654	4.25e5
46	Cpr51A	DRSC05969			6851	3.46e5
47	COX6AL2 + Ir75d	DRSC10081			6207	3.96e5
48	Dbp73D	DRSC11142			11863	6.26e5
49	CG17230	DRSC15203			8714	4.71e5
50	boil	DRSC17872			6123	3.19e5
51	Klp31E	DRSC03354			9136	7.45e5
52	dysf	DRSC14529			8059	3.39e5
53	dysf	DRSC14895			6519	2.84e5
54	dysf	DRSC14896			6910	3.26e5
55	dysf	DRSC14897			5415	1.78e5
56	CG13907	DRSC08377			11290	3.86e5
57	CG5391	DRSC15790			8729	4.96e5
58	CG2493	DRSC02707			11445	2.63e6
59	Ktl	DRSC14270			9134	3.18e5
60	CG15386 + CG42371	DRSC00400			7310	4.59e5
61	CG30089	DRSC06126			5244	4.29e5
62	CG30089	DRSC06127			5063	2.00e5
63	CG30089	DRSC06267			8016	5.18e5
64	CG30089	DRSC06268			3747	3.44e5
65	CG30089	DRSC21694			8443	4.29e5
66	Tsr1	DRSC11821			8902	4.66e5
67	CG2528	DRSC03724			6568	3.97e5
68	asl	DRSC12319	reporter ratio raised past the hit cutoff		12415	2.38e5
69	tyf	DRSC18382			4995	2.43e5
70	CG32388	DRSC08861			5034	3.61e5
71	CG4570	DRSC15602			6656	3.23e5
72	Pi3K92E	DRSC16788			9122	3.71e5
73	Cyp12a5	DRSC16621			6954	3.60e5
74	CG13562	DRSC04200			6659	3.71e5
75	Zn72D	DRSC11318			5796	2.41e5
76	CG1537	DRSC19662			4767	3.22e5
77	Kah	DRSC07887			5332	5.21e5
78	Kah	DRSC08515			6162	4.65e5
79	CR40354	DRSC20923			4642	3.87e5
80	hpRNA:CR32207	DRSC09616			6130	4.20e5
81	lncRNA:CR32660	DRSC22965			5619	5.20e5
82	CG11828	DRSC14394			5856	3.53e5
83	CG11828	DRSC22580			3851	3.85e5
84	dtr	DRSC01847			5684	3.93e5
85	CG3857	DRSC18542			7398	3.52e5
86	GstD1	DRSC16683			7122	4.31e5
87	CG42747	DRSC10209			7703	4.70e5
88	CG42747	DRSC10210			6712	3.91e5
89	WASp	DRSC15032			7552	4.14e5
90	grnd	DRSC02020			7426	4.78e5
91	coil	DRSC07242	reporter ratio raised past the hit cutoff (active)		14702	4.34e5
92	opa	DRSC12384			6766	4.59e5
93	opa	DRSC22563			3627	2.50e5
94	opa	DRSC23152			3636	2.51e5
95	CG15399	DRSC00413			8907	6.02e5
96	Gyc88E	DRSC15547			6188	3.72e5
97	Ilp5	DRSC08998			4810	4.32e5
98	O-fut2	DRSC18608			7420	4.98e5
99	rtp	DRSC12132			9015	6.16e5
100	CG8219	DRSC10971			6884	3.84e5
101	CG3280 (retired record)	DRSC10356			5404	3.43e5
102	CG10340	DRSC14232			7634	3.13e5
103	CG6833	DRSC10721			9117	3.32e5
104	mwh	DRSC08382			6876	4.62e5
105	CG17666	DRSC10276			6727	3.50e5
106	Ssrp	DRSC04658			16776	2.15e6
